Data taken from patent US7591861B2, “Processes to pre-treat hair with organic solvents” (The Procter & Gamble Company, priority 2007, dated 2009).

Experiment: Hair treatment protocol: solvent pre-treatment, then oxidative dyeing, colour strength K/S
Settings: hair switch soaked 5 minutes in solvent, then Nice n' Easy level 3 oxidative colorant 30 minutes at 30° C.; change vs. DI water

Row | SMILES | K/S vs. DI Water
1 | CC(=O)CC(C)C [4-methyl-2-pentanone] | +66%
2 | O=C1CCCCC1 [Cyclohexanone] | +17%
